50 molecules from the supplement of paper PMC6331611 can be followed below.

Molecules are shown by their SMILES. Values joined by “and” are separate entries in the source; they are usually repeats but may differ in a detail not shown here. Identical values can stand only once. ± gives the standard deviation of the averaged measurements. The full ranking holds about 1,600 compounds; the median of “normalized growth (OD600, IQM-normalized) in LPM” is about 1, and the lowest 2% start at about 0.014. This is one part of the list.

For the test, the system named is Salmonella enterica serovar Typhimurium SL1344. Put plainly: normalized growth (OD600, IQM-normalized) in LPM (fraction of plate interquartile mean); higher = more bacterial growth (less inhibition). The settings on record: LPM pH 5.8; 10 µM; 16 h.
In turn, `CCCSc1ccc2[nH]c(NC(=O)OC)nc2c1` came in with a normalized growth of 0.989 ± 0.017. As for `Cc1c(Cl)cccc1Nc1ccccc1C(=O)O`, the normalized growth is 1.05 ± 0.089.

The molecule `O=C(O)c1ccccc1-c1c2cc(I)c(=O)c(I)c-2oc2c(I)c(O)c(I)cc12` registered a normalized growth of 1.18 ± 0.065.

In the case of `CCc1ccc(CCOc2ccc(CC3SC(=O)NC3=O)cc2)nc1` (stereo not given), the normalized growth was 1.09 ± 0.067. Molecule `Cc1ccc(N(CC2=NCCN2)c2cccc(O)c2)cc1` yielded a normalized growth of 1.01 ± 0.042. The result for `O=C1c2c(O)cc(CO)cc2C(OC2OC(CO)C(O)C(O)C2O)c2cccc(OC3OC(CO)C(O)C(O)C3O)c21` (stereo not given) [CASANTHRANOL [cascaroside A shown]] reads 1.02 ± 0.031; that for `O=C(O)CCc1nc(-c2ccccc2)c(-c2ccccc2)o1`, 1.03 ± 0.06; that for `Clc1ccc2c(c1)C(N1CCNCC1)=Nc1ccccc1O2`, 0.9645 ± 0.0095.

In the case of `O=C1c2ccccc2C(=O)C1c1ccccc1`, the normalized growth amounted to 0.916 ± 0.019. In turn, `OCCN1CCN(CCCN2c3ccccc3Sc3ccc(C(F)(F)F)cc32)CC1` displayed a normalized growth of 1.06 ± 0.12. Regarding `CC(C)(Oc1ccc(CCNC(=O)c2ccc(Cl)cc2)cc1)C(=O)O`, the normalized growth came out at 0.915 ± 0.045. The result for `c1ccc(CC2=NCCN2)cc1` reads 1.13 ± 0.044. The molecule `CC1=C(/C=C/C(C)=C/C=C/C(C)=C/C=C/C=C(C)/C=C/C=C(C)/C=C/C2=C(C)CCCC2(C)C)C(C)(C)CCC1` [beta-CAROTENE] came in with a normalized growth of 0.996 ± 0.032. The result for `CC[C@H]1OC(=O)[C@H](C)[C@@H](O[C@H]2C[C@@](C)(OC)[C@@H](O)[C@H](C)O2)[C@H](C)[C@@H](O[C@@H]2O[C@H](C)C[C@H](N(C)C)[C@H]2O)[C@](C)(O)C[C@@H](C)C(=O)[C@H](C)[C@@H](O)[C@]1(C)O` reads 0.94 and 1.2; that for `CC(C(=O)O)c1ccc(CC2CCCC2=O)cc1` (stereo not given), 0.977 ± 0.023; that for `Nc1nc(F)nc2c1ncn2[C@@H]1O[C@H](COP(=O)(O)O)[C@@H](O)[C@@H]1O`, 1.08 ± 0.041.

`CCOC(=O)N1CCC(=C2c3ccc(Cl)cc3CCc3cccnc32)CC1` had a normalized growth of 0.985 ± 0.019. The result for `NC(=O)c1ccccc1O` reads 1 ± 0.012; that for `Oc1c(Br)cc(Br)c2cccnc12`, 0.0441 ± 0.043.

With `CN(C)[C@@H]1C(O)=C(C(N)=O)C(=O)[C@@]2(O)C(O)=C3C(=O)c4c(O)cccc4[C@@](C)(O)[C@H]3C[C@@H]12`, the normalized growth stood at 0.0127 ± 0.00026. The result for `C[C@H](N[C@@H](CCc1ccccc1)C(=O)O)C(=O)N1CCC[C@H]1C(=O)O` reads 0.827 ± 0.047; that for `COCCCC/C(=N\OCCN)c1ccc(C(F)(F)F)cc1`, 0.84 ± 0.11; that for `COC(=O)[C@H](c1ccccc1Cl)N1CCc2sccc2C1`, 0.979 ± 0.024. The result for `C[C@]12CCC(=O)C=C1CC[C@@H]1[C@@H]2C(=O)C[C@@]2(C)[C@H]1CC[C@]2(O)C(=O)CO` reads 1 ± 0.026; that for `NC(=O)N[C@@H](CCC(=O)O)C(=O)O`, 0.982 ± 0.016; that for `CC(=O)[C@@]12O[C@](C)(c3ccccc3)O[C@@H]1C[C@H]1[C@@H]3CCC4=CC(=O)CC[C@]4(C)[C@H]3CC[C@@]12C`, 0.967 ± 0.06.

`CC(C)c1nc(N(C)S(C)(=O)=O)nc(-c2ccc(F)cc2)c1/C=C/[C@@H](O)C[C@@H](O)CC(=O)O` had a normalized growth of 1.03 ± 0.097. The result for `Nc1ccc(S(=O)(=O)NC(=O)c2ccccc2)cc1` reads 0.995 ± 0.04; that for `C[N+](C)(C)CCOP(=O)(O)OP(=O)([O-])OC[C@H]1O[C@@H](n2ccc(N)nc2=O)[C@H](O)[C@@H]1O`, 1.04 ± 0.083; that for `FCOC(C(F)(F)F)C(F)(F)F`, 0.92 ± 0.011. The result for `CCN(CC)CCCC(C)Nc1ccnc2cc(Cl)ccc12` (stereo not given) reads 1.14 ± 0.056; that for `CS(=O)(=O)c1ccc([C@@H](O)[C@@H](CF)NC(=O)C(Cl)Cl)cc1`, 0.0094 ± 0.00019; that for `Cc1cccc(C)c1NC(=O)c1ccccc1C(=O)O`, 1.15 ± 0.12. The result for `c1ccc2c(c1)CCCC2C1=NCCN1` (stereo not given) reads 1.06 ± 0.016.

Regarding `C[C@@H](O)[C@H]1C(=O)N2C(C(=O)O)=C(SCCNC=N)C[C@H]12`, the normalized growth stood at 1.03 ± 0.081.

`Cc1ncc([N+](=O)[O-])n1C` gave a normalized growth of 0.99 ± 0.18. Molecule `CCCCCN(C)CCC(O)(P(=O)(O)O)P(=O)(O)O` registered a normalized growth of 1.09 ± 0.081. The result for `C[Se]CC[C@H](N)C(=O)O` reads 1.28 ± 0.072. The result for `C1N2CN3CN1CN(C2)C3` reads 0.981 ± 0.077; that for `CN(C)c1cnccn1`, 1.09 ± 0.013; that for `CCn1cc(C(=O)O)c(=O)c2cc(F)c(N3CCNCC3)nc21`, 0.0514 ± 0.033. Molecule `CC(=O)OCC(=O)NCCCOc1cccc(CN2CCCCC2)c1` came in with a normalized growth of 1.07 ± 0.099. The result for `C=CCc1ccc(O)c(OC)c1` reads 1.12 ± 0.12; that for `OC[C@@H](O)[C@@H](O)[C@H](O)[C@H](O)CO`, 1.05 ± 0.022. The result for `O=C1OC(c2ccc(O)cc2)(c2ccc(O)cc2)c2ccccc21` reads 1.07 ± 0.024; that for `O=C(O)CN(CCN(CC(=O)O)CC(=O)O)CC(=O)O.[Na+].[Na+].[Na+]`, 0.0403 ± 0.013.

In turn, `CC(C(=O)O)c1cccc(Oc2ccccc2)c1` (stereo not given) showed a normalized growth of 0.922 ± 0.0094. In turn, `CCCc1ncc(C[n+]2ccccc2C)c(N)n1` displayed a normalized growth of 0.977 ± 0.019. The molecule `Cc1cn[nH]c1` gave a normalized growth of 0.962 ± 0.06. The result for `C[C@@H](O)CN(CCN(C[C@@H](C)O)C[C@@H](C)O)C[C@@H](C)O` reads 1.17 ± 0.054.
